Results: publication PMC11407306
These are yes or no findings as the source states them, for the method shown. Binding seen in cells or lysates may run through a third protein. Some results given as binding are weak or reduced against the parent protein; the word gives no strength.

Protein sequences, listed by entry. Tags and fused reporters are not part of them.
UniProt P06239: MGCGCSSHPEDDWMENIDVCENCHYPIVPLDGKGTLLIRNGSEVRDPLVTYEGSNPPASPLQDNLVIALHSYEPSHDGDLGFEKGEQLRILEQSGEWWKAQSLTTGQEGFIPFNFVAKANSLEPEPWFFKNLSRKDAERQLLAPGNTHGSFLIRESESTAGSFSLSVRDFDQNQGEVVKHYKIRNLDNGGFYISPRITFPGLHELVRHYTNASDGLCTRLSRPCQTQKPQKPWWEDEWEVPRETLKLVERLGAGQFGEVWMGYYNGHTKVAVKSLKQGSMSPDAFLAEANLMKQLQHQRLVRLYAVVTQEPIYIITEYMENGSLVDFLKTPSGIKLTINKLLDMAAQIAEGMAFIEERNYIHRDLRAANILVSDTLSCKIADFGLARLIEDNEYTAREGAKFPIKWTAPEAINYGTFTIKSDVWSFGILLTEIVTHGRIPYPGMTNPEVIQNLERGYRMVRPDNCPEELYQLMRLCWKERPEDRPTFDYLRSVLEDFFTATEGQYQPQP

T1: RhoH (human (endogenous in Jurkat)) (UniProt Q15669)
T1 sequence: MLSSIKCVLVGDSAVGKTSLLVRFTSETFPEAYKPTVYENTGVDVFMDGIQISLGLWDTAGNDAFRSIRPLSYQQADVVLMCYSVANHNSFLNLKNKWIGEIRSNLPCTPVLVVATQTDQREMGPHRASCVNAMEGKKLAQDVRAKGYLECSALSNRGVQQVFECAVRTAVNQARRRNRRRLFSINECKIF


How the values were obtained:
Test in all cases: co-IP; endogenous proteins; Jurkat cells (WT, and calcineurin Aα knock-out for the TCRζ and Lck precipitations) activated with soluble anti-CD3 and anti-mouse IgG for the indicated times; lysis in 150 mM NaCl, 20 mM Tris pH 7.5, 1% Triton X-100; agarose-conjugated anti-TCRζ or anti-Lck, or Protein G beads with anti-calcineurin Aα or anti-RhoH, 4-6 h; immunoblot
[1] = target: T1, RhoH (human (endogenous in Jurkat))
[2] = target: Lck (human (endogenous in Jurkat)) (UniProt P06239)
[3] = target: TCRζ (human (endogenous in Jurkat)) (UniProt P20963)

binding [1]	binding [2]	binding [3]	Molecule
binds	–	–	pTCRζ^Y83 (from UniProt P20963-1 22-164)
–	binds	binds	RhoH (protein, UniProt Q15669 1-191) MLSSIKCVLVGDSAVGKTSLLVRFTSETFPEAYKPTVYENTGVDVFMDGIQISLGLWDTAGNDAFRSIRPLSYQQADVVLMCYSVANHNSFLNLKNKWIGEIRSNLPCTPVLVVATQTDQREMGPHRASCVNAMEGKKLAQDVRAKGYLECSALSNRGVQQVFECAVRTAVNQARRRNRRRLFSINECKIF
